This assay addresses T1, recombinant full-length AIM2 (AIM2^FL), donor-labeled (UniProt O14862).
T1 sequence (chain, donor-labeled (fluorophore for FRET)): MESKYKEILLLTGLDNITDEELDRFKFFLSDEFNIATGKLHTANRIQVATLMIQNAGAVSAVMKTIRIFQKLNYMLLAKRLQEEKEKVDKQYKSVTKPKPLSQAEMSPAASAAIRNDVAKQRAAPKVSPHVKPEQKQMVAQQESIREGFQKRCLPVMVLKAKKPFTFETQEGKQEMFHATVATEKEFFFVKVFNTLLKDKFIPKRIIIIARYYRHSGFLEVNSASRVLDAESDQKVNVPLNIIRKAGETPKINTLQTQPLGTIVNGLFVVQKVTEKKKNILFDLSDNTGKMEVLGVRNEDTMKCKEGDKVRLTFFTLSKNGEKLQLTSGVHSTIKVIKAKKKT
Kind of assay: FRET or BRET; donor-labeled recombinant AIM2^FL and acceptor-labeled recombinant IFI16^FL; change in FRET ratio in the presence and absence of 600-bp dsDNA (10 µg/ml); both purified. (In BRET a luciferase serves as donor, and the signal depends on an acceptor being close.)

Amino acid sequences for entries named in this document (tags omitted).
UniProt Q16666: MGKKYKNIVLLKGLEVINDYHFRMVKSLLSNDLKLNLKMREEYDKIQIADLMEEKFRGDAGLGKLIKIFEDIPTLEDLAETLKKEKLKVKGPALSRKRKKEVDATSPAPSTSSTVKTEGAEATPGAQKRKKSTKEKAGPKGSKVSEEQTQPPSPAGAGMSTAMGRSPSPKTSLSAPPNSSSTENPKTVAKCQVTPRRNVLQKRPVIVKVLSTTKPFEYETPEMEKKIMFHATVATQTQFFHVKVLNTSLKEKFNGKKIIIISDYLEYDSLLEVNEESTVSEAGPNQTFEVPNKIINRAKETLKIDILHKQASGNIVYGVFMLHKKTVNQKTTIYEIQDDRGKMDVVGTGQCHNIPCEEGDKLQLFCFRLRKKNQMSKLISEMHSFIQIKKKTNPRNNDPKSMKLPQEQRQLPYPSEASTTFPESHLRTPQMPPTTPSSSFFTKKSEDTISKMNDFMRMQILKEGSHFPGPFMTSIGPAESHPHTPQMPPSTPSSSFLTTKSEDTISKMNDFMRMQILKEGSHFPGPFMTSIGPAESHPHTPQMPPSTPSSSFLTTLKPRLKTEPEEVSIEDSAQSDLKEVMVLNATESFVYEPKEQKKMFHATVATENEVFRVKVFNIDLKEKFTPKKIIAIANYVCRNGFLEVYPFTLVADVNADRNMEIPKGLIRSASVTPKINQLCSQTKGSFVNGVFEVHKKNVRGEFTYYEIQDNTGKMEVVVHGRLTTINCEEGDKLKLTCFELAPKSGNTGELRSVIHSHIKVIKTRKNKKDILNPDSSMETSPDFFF

These are yes or no findings as the source states them, for the method shown.

As to “recombinant full-length IFI16 (IFI16^FL), acceptor-labeled (from UniProt Q16666 1-785)”, the binding result is “no binding”.

Source of the values: article PMC12705702, “Structural insights into the atypical filament assembly of pyrin domain-containing IFI16” (The EMBO Journal, 2025).
